Here are results for one substance from PMC8771839.

Amino acid sequences for entries named in this document (tags omitted).
UniProt Q13200: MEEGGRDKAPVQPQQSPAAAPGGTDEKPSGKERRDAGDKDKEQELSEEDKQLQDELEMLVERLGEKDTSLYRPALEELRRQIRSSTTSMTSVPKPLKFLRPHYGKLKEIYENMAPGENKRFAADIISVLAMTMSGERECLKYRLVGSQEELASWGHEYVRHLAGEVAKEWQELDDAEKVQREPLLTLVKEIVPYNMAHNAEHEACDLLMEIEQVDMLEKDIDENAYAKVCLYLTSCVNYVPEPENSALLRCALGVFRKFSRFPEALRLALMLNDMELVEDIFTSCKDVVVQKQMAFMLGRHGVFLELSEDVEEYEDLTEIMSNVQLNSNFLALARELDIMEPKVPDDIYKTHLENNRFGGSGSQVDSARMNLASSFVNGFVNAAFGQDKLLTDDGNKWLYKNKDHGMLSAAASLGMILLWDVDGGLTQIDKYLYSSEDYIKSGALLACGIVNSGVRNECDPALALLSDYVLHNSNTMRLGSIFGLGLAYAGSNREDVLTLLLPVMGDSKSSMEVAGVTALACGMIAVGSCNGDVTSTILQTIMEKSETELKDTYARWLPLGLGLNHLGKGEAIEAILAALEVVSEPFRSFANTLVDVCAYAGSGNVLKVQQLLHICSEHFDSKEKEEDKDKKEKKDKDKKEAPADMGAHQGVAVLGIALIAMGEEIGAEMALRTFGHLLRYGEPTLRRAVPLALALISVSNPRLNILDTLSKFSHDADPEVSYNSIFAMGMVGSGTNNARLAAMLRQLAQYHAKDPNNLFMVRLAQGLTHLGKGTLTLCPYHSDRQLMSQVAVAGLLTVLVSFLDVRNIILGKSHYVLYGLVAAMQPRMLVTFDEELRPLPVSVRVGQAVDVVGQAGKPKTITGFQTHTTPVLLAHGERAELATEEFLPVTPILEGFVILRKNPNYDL

The test concerns the target T1, DIRAS family GTPase 2 (DIRAS2), FLAG-tagged (human) (UniProt Q96HU8).
T1 sequence: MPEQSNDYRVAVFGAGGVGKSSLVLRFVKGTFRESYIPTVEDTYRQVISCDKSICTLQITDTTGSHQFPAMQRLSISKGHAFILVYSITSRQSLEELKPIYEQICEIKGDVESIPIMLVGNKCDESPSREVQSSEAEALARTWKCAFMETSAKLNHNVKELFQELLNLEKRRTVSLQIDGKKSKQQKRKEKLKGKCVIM
Description: co-IP; lysates of RKO and HEK293 cells incubated overnight with primary antibodies or control immunoglobulin G, protein A/G-magnetic beads, western blotting.

Results are given in words; binding and its absence hold for the method and conditions named. In cells and extracts the contact can be indirect. Some entries that bind do so weakly or less than the wild type. Sequences can lack the tags named with a protein.

Take “26S proteasome non-ATPase regulatory subunit 2 (PSMD2) (from UniProt Q13200 1-908)”: the binding result is on record as “binds”.
